This note sets out measurements from publication PMC11601937.

Protein sequences, listed by entry. Tags and fused reporters are not part of them. Lines headed by an entry give the natural chain unless they say otherwise; changes in a name come on top.
UniProt P10605: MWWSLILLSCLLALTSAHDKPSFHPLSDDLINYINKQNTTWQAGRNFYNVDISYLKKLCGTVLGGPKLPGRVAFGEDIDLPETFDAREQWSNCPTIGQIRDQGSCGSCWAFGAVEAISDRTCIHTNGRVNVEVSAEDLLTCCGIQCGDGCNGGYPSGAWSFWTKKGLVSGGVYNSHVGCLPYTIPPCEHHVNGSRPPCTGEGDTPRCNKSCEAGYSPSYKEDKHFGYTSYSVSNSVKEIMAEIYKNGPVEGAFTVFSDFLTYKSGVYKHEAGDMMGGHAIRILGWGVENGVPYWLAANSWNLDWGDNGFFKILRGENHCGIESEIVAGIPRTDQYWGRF

The target in this assay is T1, stimulator of IFN genes (STING) (mouse (endogenous in BMDCs)) (UniProt Q3TBT3).
T1 sequence: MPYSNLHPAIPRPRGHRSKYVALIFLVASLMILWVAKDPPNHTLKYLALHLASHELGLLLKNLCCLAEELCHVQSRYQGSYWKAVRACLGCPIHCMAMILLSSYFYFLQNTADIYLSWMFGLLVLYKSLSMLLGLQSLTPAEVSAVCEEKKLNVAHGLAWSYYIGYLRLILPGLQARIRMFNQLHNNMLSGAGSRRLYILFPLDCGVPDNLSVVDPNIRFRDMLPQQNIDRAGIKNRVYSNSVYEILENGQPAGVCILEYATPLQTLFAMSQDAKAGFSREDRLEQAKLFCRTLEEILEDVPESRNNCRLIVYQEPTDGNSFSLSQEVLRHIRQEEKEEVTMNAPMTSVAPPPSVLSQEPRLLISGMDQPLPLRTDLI
Put plainly: co-IP; anti-STING antibody on Dynabeads Protein G; lysates of WT mouse BMDCs stimulated with 2'3'-cGAMP, incubated 2 hours at room temperature; eluate detected by Western blotting.

No constants are given. Whether binding was seen depends on the method and setting. Binding seen in cells or lysates may run through a third protein. Binding calls can cover weak binding; strength is not graded here.

For the substance “cathepsin B (from UniProt P10605) (enzyme)”, the binding entry is “binds”.
